From the supplement of paper PMC10849652 come the findings set out here.

Protein sequences, listed by entry. Tags and fused reporters are not part of them. Lines headed by an entry give the natural chain unless they say otherwise; changes in a name come on top.
UniProt Q96NL6: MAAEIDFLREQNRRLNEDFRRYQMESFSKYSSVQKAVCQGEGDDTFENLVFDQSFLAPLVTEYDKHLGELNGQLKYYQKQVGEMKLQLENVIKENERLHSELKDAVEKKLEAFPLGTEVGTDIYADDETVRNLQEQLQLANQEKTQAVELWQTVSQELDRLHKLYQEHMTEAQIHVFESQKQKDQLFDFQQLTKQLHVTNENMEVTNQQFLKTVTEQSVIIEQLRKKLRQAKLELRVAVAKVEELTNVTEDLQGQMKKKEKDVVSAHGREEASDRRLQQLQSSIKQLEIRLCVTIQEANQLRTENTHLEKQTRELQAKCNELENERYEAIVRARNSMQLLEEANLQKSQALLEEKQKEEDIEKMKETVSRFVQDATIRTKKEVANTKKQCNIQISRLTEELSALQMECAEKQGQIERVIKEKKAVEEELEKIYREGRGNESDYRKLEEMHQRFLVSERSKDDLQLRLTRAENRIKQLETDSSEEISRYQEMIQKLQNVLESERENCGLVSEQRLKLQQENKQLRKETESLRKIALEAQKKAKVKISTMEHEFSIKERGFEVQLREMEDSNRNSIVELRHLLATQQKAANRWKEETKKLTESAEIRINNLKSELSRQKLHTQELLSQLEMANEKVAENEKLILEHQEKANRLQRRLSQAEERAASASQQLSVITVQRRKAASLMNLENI
UniProt Q7L099: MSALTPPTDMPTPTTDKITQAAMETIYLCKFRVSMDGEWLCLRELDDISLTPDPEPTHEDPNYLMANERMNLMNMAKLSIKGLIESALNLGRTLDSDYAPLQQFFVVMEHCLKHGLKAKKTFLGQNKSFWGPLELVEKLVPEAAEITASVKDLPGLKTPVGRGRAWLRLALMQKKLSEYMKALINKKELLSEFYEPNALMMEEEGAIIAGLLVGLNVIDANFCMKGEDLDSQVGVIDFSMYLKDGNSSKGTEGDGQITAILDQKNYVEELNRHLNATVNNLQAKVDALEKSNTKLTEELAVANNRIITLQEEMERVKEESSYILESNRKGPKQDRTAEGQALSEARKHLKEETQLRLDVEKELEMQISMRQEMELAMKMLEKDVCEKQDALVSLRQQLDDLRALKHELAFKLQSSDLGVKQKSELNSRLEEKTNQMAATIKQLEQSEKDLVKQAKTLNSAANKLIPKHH
UniProt O75446: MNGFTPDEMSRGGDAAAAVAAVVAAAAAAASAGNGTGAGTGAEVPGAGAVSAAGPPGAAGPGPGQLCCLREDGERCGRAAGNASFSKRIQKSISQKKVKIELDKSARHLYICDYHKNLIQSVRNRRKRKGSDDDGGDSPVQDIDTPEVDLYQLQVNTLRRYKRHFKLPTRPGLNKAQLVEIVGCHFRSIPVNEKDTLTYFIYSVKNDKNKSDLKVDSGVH
UniProt Q86SQ7: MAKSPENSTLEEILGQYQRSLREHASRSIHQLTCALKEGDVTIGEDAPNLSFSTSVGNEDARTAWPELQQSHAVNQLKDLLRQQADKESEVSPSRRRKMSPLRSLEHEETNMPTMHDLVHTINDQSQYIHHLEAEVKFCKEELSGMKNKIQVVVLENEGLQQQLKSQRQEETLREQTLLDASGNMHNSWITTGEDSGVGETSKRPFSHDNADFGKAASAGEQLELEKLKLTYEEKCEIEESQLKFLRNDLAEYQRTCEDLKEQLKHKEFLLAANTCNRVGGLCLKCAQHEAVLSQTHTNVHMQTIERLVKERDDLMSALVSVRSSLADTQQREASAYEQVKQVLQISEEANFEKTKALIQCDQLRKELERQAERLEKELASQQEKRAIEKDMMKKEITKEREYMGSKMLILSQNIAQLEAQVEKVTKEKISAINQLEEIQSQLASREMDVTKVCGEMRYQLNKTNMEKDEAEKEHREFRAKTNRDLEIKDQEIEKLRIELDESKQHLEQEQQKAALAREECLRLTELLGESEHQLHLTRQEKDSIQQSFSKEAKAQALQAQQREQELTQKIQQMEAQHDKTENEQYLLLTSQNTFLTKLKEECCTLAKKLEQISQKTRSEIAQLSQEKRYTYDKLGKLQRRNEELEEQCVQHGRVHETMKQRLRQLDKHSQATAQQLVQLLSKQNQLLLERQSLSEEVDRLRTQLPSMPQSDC
UniProt O15027: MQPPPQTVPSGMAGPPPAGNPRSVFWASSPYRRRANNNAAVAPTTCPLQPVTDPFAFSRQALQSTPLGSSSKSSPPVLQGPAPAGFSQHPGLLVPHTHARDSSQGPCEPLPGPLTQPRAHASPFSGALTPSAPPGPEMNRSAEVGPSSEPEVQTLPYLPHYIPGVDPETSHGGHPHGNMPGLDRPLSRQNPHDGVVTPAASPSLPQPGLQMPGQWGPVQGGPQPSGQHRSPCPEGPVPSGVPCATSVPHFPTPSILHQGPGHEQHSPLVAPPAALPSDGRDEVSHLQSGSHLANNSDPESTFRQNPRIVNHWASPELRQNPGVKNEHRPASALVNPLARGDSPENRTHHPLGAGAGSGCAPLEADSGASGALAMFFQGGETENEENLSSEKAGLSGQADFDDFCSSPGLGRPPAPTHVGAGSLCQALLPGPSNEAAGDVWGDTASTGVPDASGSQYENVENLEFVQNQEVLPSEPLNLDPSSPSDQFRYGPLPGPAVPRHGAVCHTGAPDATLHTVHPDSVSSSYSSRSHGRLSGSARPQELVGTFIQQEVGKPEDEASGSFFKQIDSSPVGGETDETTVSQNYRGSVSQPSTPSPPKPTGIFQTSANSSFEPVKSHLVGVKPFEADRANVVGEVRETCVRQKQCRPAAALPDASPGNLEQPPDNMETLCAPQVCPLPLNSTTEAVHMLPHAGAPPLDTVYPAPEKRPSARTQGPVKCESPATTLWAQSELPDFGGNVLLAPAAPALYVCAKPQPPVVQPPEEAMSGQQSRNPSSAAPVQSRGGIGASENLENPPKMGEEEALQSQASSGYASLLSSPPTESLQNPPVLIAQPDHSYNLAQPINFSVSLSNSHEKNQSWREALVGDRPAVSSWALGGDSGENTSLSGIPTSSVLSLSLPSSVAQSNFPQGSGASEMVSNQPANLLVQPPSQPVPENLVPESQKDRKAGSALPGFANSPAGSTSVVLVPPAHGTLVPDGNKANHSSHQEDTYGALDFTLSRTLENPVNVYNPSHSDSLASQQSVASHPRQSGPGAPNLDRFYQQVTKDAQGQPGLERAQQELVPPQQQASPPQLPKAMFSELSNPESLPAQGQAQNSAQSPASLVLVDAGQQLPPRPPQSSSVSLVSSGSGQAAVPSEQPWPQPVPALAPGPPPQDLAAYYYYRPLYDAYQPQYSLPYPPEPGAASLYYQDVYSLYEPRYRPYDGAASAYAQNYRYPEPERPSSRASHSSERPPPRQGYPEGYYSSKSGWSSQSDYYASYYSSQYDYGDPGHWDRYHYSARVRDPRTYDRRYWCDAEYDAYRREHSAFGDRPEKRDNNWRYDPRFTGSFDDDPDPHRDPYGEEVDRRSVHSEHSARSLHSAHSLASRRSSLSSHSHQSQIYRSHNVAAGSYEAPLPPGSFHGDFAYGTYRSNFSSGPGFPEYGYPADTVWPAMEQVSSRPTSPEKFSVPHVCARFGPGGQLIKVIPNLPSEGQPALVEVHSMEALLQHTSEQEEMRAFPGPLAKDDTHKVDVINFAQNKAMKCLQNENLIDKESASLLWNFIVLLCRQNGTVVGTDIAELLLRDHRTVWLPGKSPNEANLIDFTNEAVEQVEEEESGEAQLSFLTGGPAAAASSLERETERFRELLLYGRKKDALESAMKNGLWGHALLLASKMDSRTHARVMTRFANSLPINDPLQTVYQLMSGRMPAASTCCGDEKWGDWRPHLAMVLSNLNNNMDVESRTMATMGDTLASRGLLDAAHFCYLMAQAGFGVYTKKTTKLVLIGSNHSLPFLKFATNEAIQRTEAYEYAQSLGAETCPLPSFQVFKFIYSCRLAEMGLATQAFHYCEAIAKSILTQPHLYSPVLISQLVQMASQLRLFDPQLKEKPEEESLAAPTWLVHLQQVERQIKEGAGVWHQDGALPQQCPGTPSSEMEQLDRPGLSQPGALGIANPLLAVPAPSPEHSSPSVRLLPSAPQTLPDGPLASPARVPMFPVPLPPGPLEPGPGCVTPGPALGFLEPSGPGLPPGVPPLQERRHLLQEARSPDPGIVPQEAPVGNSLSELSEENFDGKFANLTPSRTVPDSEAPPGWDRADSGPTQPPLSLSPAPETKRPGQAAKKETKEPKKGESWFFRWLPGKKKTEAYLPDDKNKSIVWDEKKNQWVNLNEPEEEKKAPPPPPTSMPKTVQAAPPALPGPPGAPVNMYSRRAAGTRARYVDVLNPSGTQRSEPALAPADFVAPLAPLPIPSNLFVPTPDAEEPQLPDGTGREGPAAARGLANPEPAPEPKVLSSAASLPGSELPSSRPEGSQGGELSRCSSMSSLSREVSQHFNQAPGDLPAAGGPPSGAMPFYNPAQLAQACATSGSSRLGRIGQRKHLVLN
UniProt Q9NRG7: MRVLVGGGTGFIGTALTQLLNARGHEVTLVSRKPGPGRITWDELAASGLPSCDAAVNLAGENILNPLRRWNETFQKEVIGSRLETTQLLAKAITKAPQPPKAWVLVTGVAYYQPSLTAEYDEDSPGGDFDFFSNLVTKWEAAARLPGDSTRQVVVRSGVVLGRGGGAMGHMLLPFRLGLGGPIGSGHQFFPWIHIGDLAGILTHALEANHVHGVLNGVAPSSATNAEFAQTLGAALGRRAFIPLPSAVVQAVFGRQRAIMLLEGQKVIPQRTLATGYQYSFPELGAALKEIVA
UniProt O94885: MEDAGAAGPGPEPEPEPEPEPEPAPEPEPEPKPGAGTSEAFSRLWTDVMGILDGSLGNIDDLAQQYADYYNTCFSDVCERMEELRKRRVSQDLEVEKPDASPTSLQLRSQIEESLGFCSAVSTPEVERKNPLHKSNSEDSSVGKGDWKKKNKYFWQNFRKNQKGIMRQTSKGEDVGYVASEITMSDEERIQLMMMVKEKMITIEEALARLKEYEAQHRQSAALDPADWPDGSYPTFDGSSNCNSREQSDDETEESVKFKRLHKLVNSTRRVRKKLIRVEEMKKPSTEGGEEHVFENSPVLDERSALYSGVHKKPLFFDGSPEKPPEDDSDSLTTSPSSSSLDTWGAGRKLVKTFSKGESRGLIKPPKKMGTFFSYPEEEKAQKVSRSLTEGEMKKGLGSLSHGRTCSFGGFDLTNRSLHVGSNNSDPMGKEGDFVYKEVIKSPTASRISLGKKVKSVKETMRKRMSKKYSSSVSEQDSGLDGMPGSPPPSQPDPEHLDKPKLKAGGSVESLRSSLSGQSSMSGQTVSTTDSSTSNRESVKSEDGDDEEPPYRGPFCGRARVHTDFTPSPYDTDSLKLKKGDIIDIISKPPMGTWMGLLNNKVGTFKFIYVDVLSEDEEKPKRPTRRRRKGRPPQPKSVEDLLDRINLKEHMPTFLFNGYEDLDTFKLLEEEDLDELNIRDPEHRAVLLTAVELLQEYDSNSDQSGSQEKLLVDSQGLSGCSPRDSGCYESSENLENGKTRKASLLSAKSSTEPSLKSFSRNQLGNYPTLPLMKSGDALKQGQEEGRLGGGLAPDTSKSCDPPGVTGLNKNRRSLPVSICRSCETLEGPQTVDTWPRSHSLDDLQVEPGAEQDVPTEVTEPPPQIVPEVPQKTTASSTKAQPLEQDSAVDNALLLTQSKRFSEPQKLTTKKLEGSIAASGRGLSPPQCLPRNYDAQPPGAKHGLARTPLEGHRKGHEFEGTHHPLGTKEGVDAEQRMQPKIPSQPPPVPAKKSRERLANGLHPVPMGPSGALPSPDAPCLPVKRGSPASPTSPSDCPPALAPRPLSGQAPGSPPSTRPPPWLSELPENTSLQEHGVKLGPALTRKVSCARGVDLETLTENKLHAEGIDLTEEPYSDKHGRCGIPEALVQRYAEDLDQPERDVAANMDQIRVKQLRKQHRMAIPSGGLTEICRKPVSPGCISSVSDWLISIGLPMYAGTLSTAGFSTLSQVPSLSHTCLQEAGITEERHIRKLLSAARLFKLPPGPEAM

What all share (assay): log2 fold change, soluble protein after heating vs DMSO (PISA); higher = thermal stabilisation; K562 cells, 10 uM, 30 min; active = over 0.2 and 3.5 SD of the protein, either way, in both replicates (recomputed)
Compound in test [1]: CS(=O)(=O)c1ccc(-c2cnc(N)c(C(=O)Nc3ccccc3)n2)cc1
The method, boiled down:
(§1)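 Thermal stability values are relative to control samples and come from duplicates. They are expressed as log2 fold changes. For measurement, K562 cells (2×10^6 cells/mL) received 10 μM compound for 30 min, and aliquots were heated for 3 min over 48°C-58°C, pooled, and extracted at 4°C in PBS with 0.5% NP-40. Soluble protein, the supernatant after 21,000xg for 90 min, was quantified by TMTpro 16plex LC-MS/MS with equalised channel sums.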

Compound in the next test: C[C@@H](Oc1cc(-c2cnn(C3CCNCC3)c2)cnc1N)c1c(Cl)ccc(F)c1Cl [crizotinib]
An outline of the steps:
as §1

Compound in test [2]: C[C@H](C1=CC=C(C=C1)C(=O)NC2=C3C=CNC3=NC=C2)N
The method, boiled down: as §1

Compound in another test: Cc1cc(Nc2cc(CN3CCOCC3)c3nc(C)c(Cc4ccc(Cl)cc4F)n3n2)n[nH]1 [gandotinib]
The method, boiled down: as §1

Compound in test [3]: Cc1cc(SCc2sc(-c3ccc(C(F)(F)F)cc3)nc2C)ccc1OCC(=O)O
The method, boiled down: as §1

Compound in the next test: Cc1ccc(-n2nc(C(C)(C)C)cc2NC(=O)Nc2ccc(OCCN3CCOCC3)c3ccccc23)cc1 [doramapimod]
The method, boiled down: as §1

Compound in another test: Cc1ccc(NC(=O)c2ccc(CN3CC[C@H](N(C)C)C3)c(C(F)(F)F)c2)cc1Nc1nccc(-c2cncnc2)n1 [bafetinib]
The method, boiled down: as §1

Compound in test [4]: Cc1cccc(CC(=O)N2CCc3c2ccc(-c2cn(C)c4ncnc(N)c24)c3F)n1
The method, boiled down:
as §1

Compound in the next test: Cc1cn(-c2cc(NC(=O)c3ccc(C)c(Nc4nccc(-c5cccnc5)n4)c3)cc(C(F)(F)F)c2)cn1 [nilotinib]
An outline of the steps:
as §1

Compound in test [5]: Cc1nc(Nc2n[nH]c3c2CN(C(=O)N[C@H](CN(C)C)c2ccccc2)C3(C)C)c2sccc2n1
An outline of the steps: as §1

Compound in the next test: Cc1nc(Nc2ncc(C(=O)Nc3c(C)cccc3Cl)s2)cc(N2CCN(CCO)CC2)n1 [dasatinib]
The method, boiled down:
as §1

Compound in test [6]: Cc1ncc(-c2ccnc(Nc3ccc(S(C)(=O)=O)cc3)n2)n1C(C)C
An outline of the steps:
as §1

Compound in test [7]: Cn1cc(-c2ccc3c(c2)CCN3C(=O)Cc2cccc(C(F)(F)F)c2)c2c(N)ncnc21
An outline of the steps: as §1

Compound in another test: FC(F)(F)c1ccc(/C=C/c2nc(COc3ccc(CCCCn4ccnn4)cc3)co2)cc1 [mubritinib]
An outline of the steps:
as §1

Compound in another test: Cc1ccc(C(=O)N(CCCN)[C@@H](c2nc3cc(Cl)ccc3c(=O)n2Cc2ccccc2)C(C)C)cc1 [ispinesib]
The method, boiled down: as §1

Compound in test [8]: Cn1cc(-c2ccc3nnc(C(F)(F)c4ccc5ncccc5c4)n3n2)cn1
The method, boiled down:
as §1

Compound in another test: Cn1cncc1[C@@](N)(c1ccc(Cl)cc1)c1ccc2c(c1)c(-c1cccc(Cl)c1)cc(=O)n2C [tipifarnib]
An outline of the steps:
as §1

Compound in test [9]: C[C@@H]1COCCN1C2=NC(=NC(=C2)C3(CC3)S(=O)(=O)C)C4=C5C=CNC5=CC=C4
The method, boiled down:
as §1

Compound in a further test: C[C@H](Nc1ncnc2nc[nH]c12)c1cc2cccc(Cl)c2c(=O)n1-c1ccccc1 [duvelisib]
The method, boiled down:
as §1

Compound in a further test: Cc1cc(Nc2cc(N3CCN(C)CC3)nc(Sc3ccc(NC(=O)C4CC4)cc3)n2)n[nH]1 [tozasertib]
The method, boiled down:
as §1

The other results are listed elsewhere or left out.

On to SCLT1 (UniProt Q96NL6), for which the log2 fold change in test [1] is inactive: 0.148; with crizotinib, inactive: 0.003; in test [2], inactive: -0.081; with gandotinib, inactive: 0.149; in [3], inactive: -0.028; in the test with doramapimod, inactive: 0.055. The log2 fold change with bafetinib was inactive: 0.087; in [4], inactive: -0.009; with nilotinib it was inactive: -0.099; in test [5], inactive: -0.043; with dasatinib, inactive: -0.052; in [6] it was inactive: 0.041. Further, the log2 fold change in test [7] was inactive: 0.191; with mubritinib, inactive: 0.098.
Consider RUFY3 isoform 3 (UniProt Q7L099), for which the log2 fold change in test [1] is inactive: 0.017; with crizotinib, inactive: 0.007; in test [2], inactive: -0.085; with gandotinib it was inactive: -0.012; in [3], active: 0.617; with doramapimod, inactive: -0.057. Moreover, the log2 fold change is inactive: -0.048 with ispinesib; inactive: -0.018 in test [4]; inactive: -0.16 in the test with nilotinib; inactive: 0.045 in [5]; inactive: -0.271 with dasatinib; inactive: 0.052 in [6]. In addition, the log2 fold change was inactive: 0.024 in test [7], inactive: 0.134 in [8], inactive: -0.116 in the test with tipifarnib and inactive: 0.043 with mubritinib.
As to SAP30 (UniProt O75446), the log2 fold change in [1] was inactive: -0.087; in the test with crizotinib it was inactive: 0.012; in [9], inactive: -0.047; in test [2] it was inactive: 0.098; in the test with gandotinib it was inactive: 0.162; in test [3] it was inactive: 0.124. Also, the log2 fold change with doramapimod is inactive: -0.088; in test [4], inactive: 0.076; with nilotinib, inactive: 0.083; in test [5], inactive: 0.01; in the test with dasatinib, inactive: -0.008; in test [6] it was inactive: 0.006. In addition, the log2 fold change in test [7] was inactive: -0.073; with tipifarnib, inactive: 0.068; in the test with mubritinib, inactive: -0.118.
For the target SDCCAG8 (UniProt Q86SQ7), the log2 fold change is inactive: -0.15 in test [1]; inactive: 0.073 with crizotinib; inactive: 0.054 with duvelisib; inactive: 0.114 with gandotinib; inactive: 0.357 with tozasertib; inactive: 0.035 in test [3]. Moreover, the log2 fold change was inactive: 0.09 with doramapimod, inactive: 0.053 in test [4], inactive: 0.068 with dasatinib and inactive: 0.052 with tipifarnib.
Consider SEC16A isoform 5 (UniProt O15027), for which the log2 fold change in test [1] is inactive: -0.032; in the test with crizotinib it was inactive: -0.231; in [9] it was inactive: -0.113; in test [2] it was inactive: 0.143; in the test with gandotinib, inactive: 0.087; in test [3], inactive: 0.118. The log2 fold change with doramapimod is inactive: 0.023; in the test with ispinesib, inactive: -0.119; in the test with bafetinib it was inactive: 0.023; in test [4] it was inactive: 0.096; in the test with nilotinib, inactive: 0.017; in test [5], inactive: -0.048. In addition, the log2 fold change was inactive: -0.169 in the test with dasatinib; inactive: 0.021 in test [6]; inactive: -0.006 in test [7]; inactive: -0.051 in [8]; inactive: 0.012 with tipifarnib; inactive: -0.081 in the test with mubritinib.
Take SDR39U1 (UniProt Q9NRG7): the log2 fold change in [1] is inactive: 0.863; in [9] it was inactive: 0.177; in test [2] it was inactive: 0.202; with duvelisib, inactive: -0.009; with gandotinib, inactive: 0.474; with tozasertib it was inactive: 0.428. Further, the log2 fold change is inactive: 0.02 in [3]; inactive: 0.681 with bafetinib; inactive: -0.071 in test [4]; inactive: 0.621 with nilotinib; inactive: 0.014 in test [5]; inactive: 0.059 with dasatinib. For the same target, the log2 fold change in [6] was inactive: 0.189; in test [7] it was inactive: 0.749; with tipifarnib it was inactive: -0.149; in the test with mubritinib, inactive: 0.356.
With SASH1 (UniProt O94885), the log2 fold change in test [1] was inactive: 0.023; with crizotinib it was inactive: -0.122; in test [9], inactive: -0.077; in [2] it was inactive: -0.024; with gandotinib, inactive: -0.028; in test [3], inactive: 0.198. Further, the log2 fold change in the test with doramapimod is inactive: -0.031; with ispinesib, inactive: -0.116; in the test with bafetinib it was inactive: -0.052; in test [4] it was inactive: -0.006; with nilotinib, inactive: -0.079; in test [5], inactive: -0.071. In addition, the log2 fold change with dasatinib is inactive: -0.046; in test [6], inactive: 0.034; in [7], inactive: 0.011; in [8], inactive: 0.073; with tipifarnib, inactive: 0.025; with mubritinib, inactive: 0.032.
Take SCAMP2 (UniProt H3BUB6): the log2 fold change was inactive: 0.085 in test [1]; inactive: 0.128 in the test with crizotinib; inactive: -0.011 in test [9]; inactive: 0.317 in test [2]; inactive: -0.305 in test [3]; inactive: -0.088 with doramapimod. Further, the log2 fold change with ispinesib is inactive: -0.258; in the test with bafetinib it was inactive: -0.226; with nilotinib, inactive: -0.056; in [5], inactive: 0.03; with dasatinib, inactive: 0; in [6], inactive: -0.069. Moreover, the log2 fold change in [7] is inactive: 0.062; in test [8], inactive: 0.095; in the test with tipifarnib, inactive: 0.188; with mubritinib, inactive: 0.023.
